Measurements: ChEMBL document CHEMBL3436046, “Predictive model for L-type channel inhibition: multichannel block in QT prolongation risk assessment” (J Appl Toxicol, 2012)

The chains behind the UniProt entries cited, without tags or fusion partners.
UniProt O35505, whole entry: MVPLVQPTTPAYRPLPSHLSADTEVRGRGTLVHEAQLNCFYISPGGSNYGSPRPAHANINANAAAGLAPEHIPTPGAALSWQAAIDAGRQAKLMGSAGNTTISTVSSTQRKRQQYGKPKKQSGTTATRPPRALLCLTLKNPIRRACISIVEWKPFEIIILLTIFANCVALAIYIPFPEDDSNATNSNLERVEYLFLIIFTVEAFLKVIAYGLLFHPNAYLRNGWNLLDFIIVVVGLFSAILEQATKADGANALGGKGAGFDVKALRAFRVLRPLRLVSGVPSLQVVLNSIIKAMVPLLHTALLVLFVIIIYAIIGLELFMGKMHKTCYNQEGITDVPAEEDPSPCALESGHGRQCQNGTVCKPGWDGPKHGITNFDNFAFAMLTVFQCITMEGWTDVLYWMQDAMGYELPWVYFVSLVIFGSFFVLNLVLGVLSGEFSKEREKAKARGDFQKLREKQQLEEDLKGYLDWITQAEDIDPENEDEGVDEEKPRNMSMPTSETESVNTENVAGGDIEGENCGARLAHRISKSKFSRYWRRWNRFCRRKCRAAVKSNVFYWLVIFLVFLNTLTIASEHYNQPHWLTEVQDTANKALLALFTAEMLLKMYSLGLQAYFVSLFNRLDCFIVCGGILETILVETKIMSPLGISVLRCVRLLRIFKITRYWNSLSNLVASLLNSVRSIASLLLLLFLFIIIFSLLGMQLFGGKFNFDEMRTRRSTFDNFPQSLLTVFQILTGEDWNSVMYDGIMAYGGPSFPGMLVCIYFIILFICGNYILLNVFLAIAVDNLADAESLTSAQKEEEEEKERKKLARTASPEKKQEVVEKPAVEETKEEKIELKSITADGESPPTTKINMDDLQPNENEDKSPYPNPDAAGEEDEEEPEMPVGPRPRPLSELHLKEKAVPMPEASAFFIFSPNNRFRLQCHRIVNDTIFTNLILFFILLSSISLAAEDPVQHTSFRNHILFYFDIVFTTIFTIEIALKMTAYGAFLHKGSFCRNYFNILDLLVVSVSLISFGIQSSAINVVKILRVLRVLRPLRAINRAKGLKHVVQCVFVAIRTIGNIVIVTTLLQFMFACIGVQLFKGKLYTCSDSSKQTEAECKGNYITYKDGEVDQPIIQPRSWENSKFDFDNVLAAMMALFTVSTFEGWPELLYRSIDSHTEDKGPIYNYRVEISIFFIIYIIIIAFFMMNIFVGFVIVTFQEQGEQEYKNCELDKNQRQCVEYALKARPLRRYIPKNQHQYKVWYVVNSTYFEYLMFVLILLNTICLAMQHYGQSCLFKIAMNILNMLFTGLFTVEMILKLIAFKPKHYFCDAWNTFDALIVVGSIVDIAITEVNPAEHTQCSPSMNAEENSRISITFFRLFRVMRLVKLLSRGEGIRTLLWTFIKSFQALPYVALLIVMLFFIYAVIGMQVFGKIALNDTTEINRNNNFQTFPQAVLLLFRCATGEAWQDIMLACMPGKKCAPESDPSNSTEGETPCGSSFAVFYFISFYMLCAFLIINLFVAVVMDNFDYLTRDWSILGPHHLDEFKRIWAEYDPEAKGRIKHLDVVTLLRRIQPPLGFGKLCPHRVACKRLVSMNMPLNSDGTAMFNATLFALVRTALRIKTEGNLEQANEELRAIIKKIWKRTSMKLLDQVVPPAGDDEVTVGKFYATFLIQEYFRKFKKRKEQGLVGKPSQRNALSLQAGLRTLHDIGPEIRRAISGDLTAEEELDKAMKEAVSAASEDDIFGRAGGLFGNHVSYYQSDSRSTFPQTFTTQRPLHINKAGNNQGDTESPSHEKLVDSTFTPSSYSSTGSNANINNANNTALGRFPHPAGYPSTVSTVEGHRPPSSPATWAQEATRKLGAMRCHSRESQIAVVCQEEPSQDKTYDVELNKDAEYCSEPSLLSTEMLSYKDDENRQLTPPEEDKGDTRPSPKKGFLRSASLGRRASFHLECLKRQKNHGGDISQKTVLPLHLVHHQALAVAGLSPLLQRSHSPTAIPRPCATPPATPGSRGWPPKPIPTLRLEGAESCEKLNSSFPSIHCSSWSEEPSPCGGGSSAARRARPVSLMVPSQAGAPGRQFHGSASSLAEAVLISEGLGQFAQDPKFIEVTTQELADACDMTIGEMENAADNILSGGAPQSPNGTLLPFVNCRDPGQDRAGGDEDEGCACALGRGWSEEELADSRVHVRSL

Columns and labels:
[1] = target: T1, Voltage-dependent L-type calcium channel subunit alpha-1C (Cavia porcellus, UniProt O35505); assay: (§1) Inhibition of L-type calcium channel measured using whole-cell patch clamp in guinea pig ventricular myocytes; format: functional, cell-based, Heart, Ventricular myocyte; design: ca sol conc 1.8 mM, temp 37 C
[2] = target: T1, Voltage-dependent L-type calcium channel subunit alpha-1C; assay: as §1; format: functional, cell-based, Heart, Ventricular myocyte; design: ca sol conc 0 mM, temp 35 C

COC(=O)C1=C(C)NC(C)=C(C(=O)OC)C1c1ccccc1[N+](=O)[O-] [NIFEDIPINE]
IC50 [1]: 0.26 µM
IC50 [2]: 0.3 µM
